Laboratory results taken from article PMC8565065.
These are yes or no findings as the source states them, for the method shown. In cells and extracts the contact can be indirect. Some binding calls cover weakened binding; strength is not graded here. Where a sequence is shown, tags or fusion partners need not be part of it.

By UniProt entry, the sequences of proteins in these tests, tags left out. Residues count along the entry.
UniProt P05067, residues 18-770: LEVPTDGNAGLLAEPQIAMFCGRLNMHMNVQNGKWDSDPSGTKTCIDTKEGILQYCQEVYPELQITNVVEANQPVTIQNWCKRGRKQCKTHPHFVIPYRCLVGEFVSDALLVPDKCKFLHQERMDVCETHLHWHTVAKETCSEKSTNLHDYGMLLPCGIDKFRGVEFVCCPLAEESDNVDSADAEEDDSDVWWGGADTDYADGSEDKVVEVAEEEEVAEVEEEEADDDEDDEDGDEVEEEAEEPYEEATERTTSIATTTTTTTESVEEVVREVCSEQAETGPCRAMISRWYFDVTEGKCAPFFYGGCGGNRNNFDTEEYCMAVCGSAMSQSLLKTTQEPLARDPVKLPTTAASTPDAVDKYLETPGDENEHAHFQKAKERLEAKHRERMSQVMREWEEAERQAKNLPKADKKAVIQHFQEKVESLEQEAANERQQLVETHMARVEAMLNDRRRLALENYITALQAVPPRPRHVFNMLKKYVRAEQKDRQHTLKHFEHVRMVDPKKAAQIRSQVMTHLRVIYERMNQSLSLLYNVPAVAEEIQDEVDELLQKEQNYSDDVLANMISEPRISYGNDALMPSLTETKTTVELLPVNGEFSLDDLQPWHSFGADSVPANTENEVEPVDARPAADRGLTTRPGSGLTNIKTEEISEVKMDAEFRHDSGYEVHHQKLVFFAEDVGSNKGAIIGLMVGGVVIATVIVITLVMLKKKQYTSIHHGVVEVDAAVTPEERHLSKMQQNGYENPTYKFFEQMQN

Biological target: wild-type human APP (APP770 isoform) stably overexpressed in CHO-PS70 cells (human) (UniProt P05067)
Experiment: co-IP; extracts (50 μL) of CHO-PS70 cells transfected with LRP3-flag incubated 2.5 h at room temperature with magnetic beads coupled to an anti-C-terminal APP antibody; rabbit IgG as negative control; input, bound and unbound fractions blotted

B1: 3×FLAG-LRP3 (full-length human LRP3) in CHO-PS70 cells (receptor, UniProt O75074 37-770)
chain: VPALAACSGKLEQHTERRGVIYSPAWPLNYPPGTNCSWYIQGDRGDMITISFRNFDVEESHQCSLDWLLLGPAAPPRQEAFRLCGSAIPPAFISARDHVWIFFHSDASSSGQAQGFRLSYIRGKLGQASCQADEFRCDNGKCLPGPWQCNTVDECGDGSDEGNCSAPASEPPGSLCPGGTFPCSGARSTRCLPVERRCDGLQDCGDGSDEAGCPDLACGRRLGSFYGSFASPDLFGAARGPSDLHCTWLVDTQDSRRVLLQLELRLGYDDYVQVYEGLGERGDRLLQTLSYRSNHRPVSLEAAQGRLTVAYHARARSAGHGFNATYQVKGYCLPWEQPCGSSSDSDGGSLGDQGCFSEPQRCDGWWHCASGRDEQGCPACPPDQYPCEGGSGLCYTPADRCNNQKSCPDGADEKNCFSCQPGTFHCGTNLCIFETWRCDGQEDCQDGSDEHGCLAAVPRKVITAALIGSLVCGLLLVIALGCAFKLYSLRTQEYRAFETQMTRLEAEFVRREAPPSYGQLIAQGLIPPVEDFPVYSASQASVLQNLRTAMRRQMRRHASRRGPSRRRLGRLWNRLFHRPRAPRGQIPLLTAARPSQTVLGDGFLQPAPGAAPDPPAPLMDTGSTRAAGDRPPSAPGRAPEVGPSGPPLPSGLRDPECRPVDKDRKVCREPLVDGPAPADAPREPCSAQDPHPQVSTASSTLGPHSPEPLGVCRNPPPPCSPMLEASDDEALLVC
B1 was tested, and the binding was “binds”.
